# According to patent US20070185089A1, “Benzazepine derivatives for the treatment of neurological and psychiatric disorders” (Glaxo Group Limited, priority 2004, published 2007):
# Amino acid sequences for entries named in this document (tags omitted). A change or cut given only in a name is not applied to a line headed by its entry.
# UniProt Q9Y5N1: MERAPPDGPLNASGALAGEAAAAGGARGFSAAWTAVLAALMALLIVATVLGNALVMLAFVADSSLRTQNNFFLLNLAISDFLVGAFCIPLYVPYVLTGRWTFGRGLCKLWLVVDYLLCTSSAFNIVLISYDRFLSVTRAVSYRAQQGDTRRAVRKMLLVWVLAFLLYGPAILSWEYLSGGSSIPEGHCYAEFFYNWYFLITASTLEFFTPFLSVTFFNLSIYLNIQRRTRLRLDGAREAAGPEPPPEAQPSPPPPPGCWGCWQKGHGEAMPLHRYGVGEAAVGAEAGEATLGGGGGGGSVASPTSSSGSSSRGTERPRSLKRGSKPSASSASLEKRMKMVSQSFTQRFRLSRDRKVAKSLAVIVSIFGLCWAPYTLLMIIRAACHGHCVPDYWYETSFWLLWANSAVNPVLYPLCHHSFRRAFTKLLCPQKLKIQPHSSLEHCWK
# Several values for one entry are separate records, joined by “and”; a condition that tells them apart may be missing. Equal entries are not always repeated. Some of these results come from one statement about several compounds together.
# Target: T1, histamine H3 receptor (Homo sapiens, UniProt Q9Y5N1)
# T1 construct: expressed in transfected cells; host or cells: CHO K1 cells carrying pSwitch, transfected with pGeneH3; mifepristone-induced; clone 3H3; membranes
# Assay: Histamine H3 functional antagonist assay (method A), [35S]-GTPγS SPA on membranes
# Type: biochemical
# Details: histamine at EC80
row,Compound,antagonism in the histamine H3 functional antagonist assay (method A)
1,"O=C(c1ncsc1-c1ccccc1)N1CCN(c2ccc3c(c2)CCN(C2CCCC2)CC3)CC1 [Example E180, 3-Cyclopentyl-7-{4-[(5-phenyl-1,3-thiazol-4-yl)carbonyl]-1-piperazinyl}-2,3,4,5-tetrahydro-1H-3-benzazepine]",> 9.0 pKb and > 6.5 pKb
2,"O=C(C1CC1)N1CCN(c2ccc3c(c2)CCN(C2CCCC2)CC3)CC1.O=C(O)C(F)(F)F [Example E132, 3-Cyclopentyl-7-[4-(cyclopropylcarbonyl)-1-piperazinyl]-2,3,4,5-tetrahydro-1H-3-benzazepine trifluoroacetate salt]",> 6.5 pKb
3,"CNC(=O)c1ccc(-c2ccc3c(c2)CCN(C2CCC2)CC3)c(C)c1 [Example E203, 4-(3-Cyclobutyl-2,3,4,5-tetrahydro-1H-3-benzazepin-7-yl)-N,3-dimethylbenzamide]",> 6.5 pKb
4,"CC(C)(C)c1ccc(C(=O)N2CCN(c3ccc4c(c3)CCN(C3CCCC3)CC4)CC2)cc1.O=C(O)C(F)(F)F [Example E101, 3-Cyclopentyl-7-(4-{[4-(1,1-dimethylethyl)phenyl]carbonyl}-1-piperazinyl)-2,3,4,5-tetrahydro-1H-3-benzazepine trifluoroacetate salt]",> 6.5 pKb
5,"Cc1cc(C(=O)N2CCN(c3ccc4c(c3)CCN(C3CCCC3)CC4)CC2)c(C)o1 [Example E173, 3-Cyclopentyl-7-{4-[(2,5-dimethyl-3-furanyl)carbonyl]-1-piperazinyl}-2,3,4,5-tetrahydro-1H-3-benzazepine]",> 6.5 pKb
6,"O=C(C1Cc2ccccc2O1)N1CCN(c2ccc3c(c2)CCN(C2CCCC2)CC3)CC1.O=C(O)C(F)(F)F (stereo not shown) [Example E103, 3-Cyclopentyl-7-[4-(2,3-dihydro-1-benzofuran-2-ylcarbonyl)-1-piperazinyl]-2,3,4,5-tetrahydro-1H-3-benzazepine trifluoroacetate salt]",> 6.5 pKb
7,"O=C(c1cccs1)N1CCN(c2ccc3c(c2)CCN(C2CCCC2)CC3)CC1 [Example E176, 3-Cyclopentyl-7-[4-(2-thienylcarbonyl)-1-piperazinyl]-2,3,4,5-tetrahydro-1H-3-benzazepine]",> 6.5 pKb
8,"O=C(c1cnn2cccnc12)N1CCN(c2ccc3c(c2)CCN(C2CCCC2)CC3)CC1 [Example E182, 3-Cyclopentyl-7-[4-(pyrazolo[1,5-a]pyrimidin-3-ylcarbonyl)-1-piperazinyl]-2,3,4,5-tetrahydro-1H-3-benzazepine]",> 6.5 pKb
9,"Cc1nonc1CC(=O)N1CCN(c2ccc3c(c2)CCN(C2CCCC2)CC3)CC1 [Example E188, 3-Cyclopentyl-7-{4-[(4-methyl-1,2,5-oxadiazol-3-yl)acetyl]-1-piperazinyl}-2,3,4,5-tetrahydro-1H-3-benzazepine]",> 6.5 pKb
10,"CN1CCC[C@H]1C(=O)N1CCN(c2ccc3c(c2)CCN(C2CCCC2)CC3)CC1 [Example E174, 3-Cyclopentyl-7-[4-(1-methyl-L-prolyl)-1-piperazinyl]-2,3,4,5-tetrahydro-1H-3-benzazepine]",> 6.5 pKb
11,"O=C(O)C(F)(F)F.O=C(c1cccc(OC(F)(F)F)c1)N1CCN(c2ccc3c(c2)CCN(C2CCCC2)CC3)CC1 [Example E114, 3-Cyclopentyl-7-[4-({3-[(trifluoromethyl)oxy]phenyl}carbonyl)-1-piperazinyl]-2,3,4,5-tetrahydro-1H-3-benzazepine trifluoroacetate salt]",> 6.5 pKb
12,"COc1cccc(C(=O)N2CCN(c3ccc4c(c3)CCN(C3CCCC3)CC4)CC2)c1.O=C(O)C(F)(F)F [Example E124, 3-Cyclopentyl-7-(4-{[3-(methyloxy)phenyl]carbonyl}-1-piperazinyl)-2,3,4,5-tetrahydro-1H-3-benzazepine trifluoroacetate salt]",> 6.5 pKb
13,"O=C(O)C(F)(F)F.O=C(c1cccc2c1OCC2)N1CCN(c2ccc3c(c2)CCN(C2CCCC2)CC3)CC1 [Example E146, 3-Cyclopentyl-7-[4-(2,3-dihydro-1-benzofuran-7-ylcarbonyl)-1-piperazinyl]-2,3,4,5-tetrahydro-1H-3-benzazepine trifluoroacetate salt]",> 6.5 pKb
14,"O=C(O)C(F)(F)F.O=C(c1cnn2ccccc12)N1CCN(c2ccc3c(c2)CCN(C2CCCC2)CC3)CC1 [Example E149, 3-Cyclopentyl-7-[4-(pyrazolo[1,5-a]pyridin-3-ylcarbonyl)-1-piperazinyl]-2,3,4,5-tetrahydro-1H-3-benzazepine trifluoroacetate salt]",> 6.5 pKb
15,"O=C(O)C(F)(F)F.O=C(c1ccc(C(F)(F)F)cc1)N1CCN(c2ccc3c(c2)CCN(C2CCCC2)CC3)CC1 [Example E113, 3-Cyclopentyl-7-(4-{[4-(trifluoromethyl)phenyl]carbonyl}-1-piperazinyl)-2,3,4,5-tetrahydro-1H-3-benzazepine trifluoroacetate salt]",> 6.5 pKb
16,"N#Cc1ccc(OC[C@H]2CN(c3ccc4c(c3)CCN(C3CCC3)CC4)C(=O)O2)cc1 [Example E193, 4-({[(5R)-3-(3-Cyclobutyl-2,3,4,5-tetrahydro-1H-3-benzazepin-7-yl)-2-oxo-1,3-oxazolidin-5-yl]methyl}oxy)benzonitrile]",> 6.5 pKb
17,"Cn1cc(C(=O)N2CCN(c3ccc4c(c3)CCN(C3CCCC3)CC4)CC2)c(-c2ccccc2)n1 [Example E186, 3-Cyclopentyl-7-{4-[(1-methyl-3-phenyl-1H-pyrazol-4-yl)carbonyl]-1-piperazinyl}-2,3,4,5-tetrahydro-1H-3-benzazepine]",> 6.5 pKb
18,"O=C(COc1ccccc1)N1CCN(c2ccc3c(c2)CCN(C2CCCC2)CC3)CC1 [Example E175, 3-Cyclopentyl-7-{4-[(phenyloxy)acetyl]-1-piperazinyl}-2,3,4,5-tetrahydro-1H-3-benzazepine]",> 6.5 pKb
19,"O=C(O)C(F)(F)F.O=C(c1cnc2ccccc2c1)N1CCN(c2ccc3c(c2)CCN(C2CCCC2)CC3)CC1 [Example E148, 3-Cyclopentyl-7-[4-(3-quinolinylcarbonyl)-1-piperazinyl]-2,3,4,5-tetrahydro-1H-3-benzazepine trifluoroacetate salt]",> 6.5 pKb
20,"CC(C)Oc1ccc(C(=O)N2CCN(c3ccc4c(c3)CCN(C3CCCC3)CC4)CC2)cc1.O=C(O)C(F)(F)F [Example E125, 3-Cyclopentyl-7-[4-({4-[(1-methylethyl)oxy]phenyl}carbonyl)-1-piperazinyl]-2,3,4,5-tetrahydro-1H-3-benzazepine trifluoroacetate salt]",> 6.5 pKb
21,"O=C(O)C(F)(F)F.O=C(c1ccc(-c2ccccn2)s1)N1CCN(c2ccc3c(c2)CCN(C2CCCC2)CC3)CC1 [Example E152, 3-Cyclopentyl-7-(4-{[5-(2-pyridinyl)-2-thienyl]carbonyl}-1-piperazinyl)-2,3,4,5-tetrahydro-1H-3-benzazepine trifluoroacetate salt]",> 6.5 pKb
22,"O=C(c1ccc(C(=O)N2CCN(c3ccc4c(c3)CCN(C3CCCC3)CC4)CC2)cc1)N1CCCCC1 [Example E170, 3-Cyclopentyl-7-(4-{[4-(1-piperidinylcarbonyl)phenyl]carbonyl}-1-piperazinyl)-2,3,4,5-tetrahydro-1H-3-benzazepine]",> 6.5 pKb

# Same assay, conditions: histamine at EC80, trifluoroacetate salt
row,Compound,antagonism in the histamine H3 functional antagonist assay (method A)
1,"O=C(O)C(F)(F)F.O=C([C@@H]1CCCN1Cc1ccccc1)N1CCN(c2ccc3c(c2)CCN(C2CCCC2)CC3)CC1 [Example E140, 3-Cyclopentyl-7-{4-[1-(phenylmethyl)-L-prolyl]-1-piperazinyl}-2,3,4,5-tetrahydro-1H-3-benzazepine trifluoroacetate salt]",> 9.0 pKb and > 6.5 pKb
2,"CC(C(=O)N1CCN(c2ccc3c(c2)CCN(C2CCCC2)CC3)CC1)c1ccccc1.O=C(O)C(F)(F)F (stereo not shown) [Example E98, 3-Cyclopentyl-7-[4-(2-phenylpropanoyl)-1-piperazinyl]-2,3,4,5-tetrahydro-1H-3-benzazepine trifluoroacetate salt]",> 9.0 pKb and > 6.5 pKb
3,"O=C(O)C(F)(F)F.O=C(c1ccc2ncsc2c1)N1CCN(c2ccc3c(c2)CCN(C2CCCC2)CC3)CC1 [Example E108, 7-[4-(1,3-Benzothiazol-6-ylcarbonyl)-1-piperazinyl]-3-cyclopentyl-2,3,4,5-tetrahydro-1H-3-benzazepine trifluoroacetate salt]",> 9.0 pKb and > 6.5 pKb
4,"CC(C)N1CCC(C(=O)N2CCN(c3ccc4c(c3)CCN(C3CCCC3)CC4)CC2)CC1.O=C(O)C(F)(F)F [Example E136, 3-Cyclopentyl-7-(4-{[1-(1-methylethyl)-4-piperidinyl]carbonyl}-1-piperazinyl)-2,3,4,5-tetrahydro-1H-3-benzazepine trifluoroacetate salt]",> 9.0 pKb and > 6.5 pKb
5,"O=C(Cc1ccc2[nH]c(=O)ccc2c1)N1CCN(c2ccc3c(c2)CCN(C2CCCC2)CC3)CC1.O=C(O)C(F)(F)F [Example E160, 6-{2-[4-(3-Cyclopentyl-2,3,4,5-tetrahydro-1H-3-benzazepin-7-yl)-1-piperazinyl]-2-oxoethyl}-2(1H)-quinolinone trifluoroacetate salt]",> 9.0 pKb and > 6.5 pKb
6,"CS(=O)(=O)c1ccc(C(=O)N2CCN(c3ccc4c(c3)CCN(C3CCCC3)CC4)CC2)cc1.O=C(O)C(F)(F)F [Example E144, 3-Cyclopentyl-7-(4-{[4-(methylsulfonyl)phenyl]carbonyl}-1-piperazinyl)-2,3,4,5-tetrahydro-1H-3-benzazepine trifluoroacetate salt]",> 9.0 pKb and > 6.5 pKb
